No constants are given. Whether binding was seen depends on the method and setting. Binding seen in cells or lysates may run through a third protein. Here binding means that the protein was enriched with, or labelled near, the bait; the list need not be complete. Tags and fused reporters may be left off the sequences shown.
T1: ALK1-YFP (35S:ALK1-YFP) (Arabidopsis thaliana) (UniProt Q9M8T0)
T1 sequence: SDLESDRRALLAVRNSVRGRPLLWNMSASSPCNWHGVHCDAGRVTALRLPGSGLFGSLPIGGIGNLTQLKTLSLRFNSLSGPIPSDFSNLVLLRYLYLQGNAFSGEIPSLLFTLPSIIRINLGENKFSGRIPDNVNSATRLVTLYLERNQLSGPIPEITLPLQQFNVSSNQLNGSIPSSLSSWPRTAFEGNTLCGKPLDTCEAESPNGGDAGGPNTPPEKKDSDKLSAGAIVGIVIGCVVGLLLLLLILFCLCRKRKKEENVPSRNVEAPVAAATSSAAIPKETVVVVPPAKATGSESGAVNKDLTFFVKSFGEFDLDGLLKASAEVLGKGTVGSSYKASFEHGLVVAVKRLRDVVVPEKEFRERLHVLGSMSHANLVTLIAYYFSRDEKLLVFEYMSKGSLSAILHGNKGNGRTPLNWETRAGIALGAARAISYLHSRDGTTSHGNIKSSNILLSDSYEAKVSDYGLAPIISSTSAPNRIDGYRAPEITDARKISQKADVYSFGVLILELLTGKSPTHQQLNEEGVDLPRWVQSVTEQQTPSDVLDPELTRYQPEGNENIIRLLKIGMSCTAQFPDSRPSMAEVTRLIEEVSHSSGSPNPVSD

T2: ABCG36-GFP (PEN3:PEN3-GFP), Arabidopsis roots (Arabidopsis thaliana) (UniProt Q9XIE2)
T2 sequence: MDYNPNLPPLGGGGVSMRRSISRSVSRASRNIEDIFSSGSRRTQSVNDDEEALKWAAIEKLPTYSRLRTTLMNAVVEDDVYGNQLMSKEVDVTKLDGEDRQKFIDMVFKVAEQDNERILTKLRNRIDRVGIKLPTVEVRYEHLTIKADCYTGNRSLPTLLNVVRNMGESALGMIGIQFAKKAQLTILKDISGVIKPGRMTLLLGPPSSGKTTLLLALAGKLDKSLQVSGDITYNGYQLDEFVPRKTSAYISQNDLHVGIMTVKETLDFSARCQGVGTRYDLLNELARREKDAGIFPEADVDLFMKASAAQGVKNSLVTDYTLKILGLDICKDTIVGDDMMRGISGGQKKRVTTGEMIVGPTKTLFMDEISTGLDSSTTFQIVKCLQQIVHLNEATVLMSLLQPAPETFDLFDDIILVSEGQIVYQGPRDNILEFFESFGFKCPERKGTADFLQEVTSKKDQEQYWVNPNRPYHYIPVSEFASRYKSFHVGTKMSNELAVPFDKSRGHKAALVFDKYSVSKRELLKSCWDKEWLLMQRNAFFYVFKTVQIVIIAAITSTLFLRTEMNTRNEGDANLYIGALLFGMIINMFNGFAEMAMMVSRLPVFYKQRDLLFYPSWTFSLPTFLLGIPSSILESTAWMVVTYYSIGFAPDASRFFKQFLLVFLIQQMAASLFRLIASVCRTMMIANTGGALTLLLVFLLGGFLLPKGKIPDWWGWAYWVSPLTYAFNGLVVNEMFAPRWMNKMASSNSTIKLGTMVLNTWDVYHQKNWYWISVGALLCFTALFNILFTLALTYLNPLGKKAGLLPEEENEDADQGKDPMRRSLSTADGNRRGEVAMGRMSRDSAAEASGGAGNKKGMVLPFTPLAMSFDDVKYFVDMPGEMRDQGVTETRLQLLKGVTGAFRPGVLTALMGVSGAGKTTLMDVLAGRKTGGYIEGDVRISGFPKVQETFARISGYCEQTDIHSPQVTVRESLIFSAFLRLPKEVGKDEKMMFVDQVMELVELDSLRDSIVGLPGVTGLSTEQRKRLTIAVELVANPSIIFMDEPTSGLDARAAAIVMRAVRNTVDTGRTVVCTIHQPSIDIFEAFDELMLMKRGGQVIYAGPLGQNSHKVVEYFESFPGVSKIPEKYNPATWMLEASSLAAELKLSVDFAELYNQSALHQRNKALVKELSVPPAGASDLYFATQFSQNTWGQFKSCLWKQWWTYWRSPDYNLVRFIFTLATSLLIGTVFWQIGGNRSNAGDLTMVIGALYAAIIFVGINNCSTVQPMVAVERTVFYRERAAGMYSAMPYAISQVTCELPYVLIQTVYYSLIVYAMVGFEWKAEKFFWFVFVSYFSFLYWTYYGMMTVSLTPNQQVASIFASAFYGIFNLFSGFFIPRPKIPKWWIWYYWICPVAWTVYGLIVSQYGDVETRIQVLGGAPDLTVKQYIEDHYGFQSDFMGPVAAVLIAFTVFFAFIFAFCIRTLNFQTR


How the values were obtained:
[1] = biological target: T1, ALK1-YFP (35S:ALK1-YFP) (Arabidopsis thaliana); assay: affinity purification with mass spectrometry
[2] = biological target: T2, ABCG36-GFP (PEN3:PEN3-GFP), Arabidopsis roots (Arabidopsis thaliana); assay: affinity purification with mass spectrometry

binding [1]	binding [2]	Binder
binds		ABCG40/PDR12, endogenous (protein, UniProt Q9M9E1 1-1423) MEGTSFHQASNSMRRNSSVWKKDSGREIFSRSSREEDDEEALRWAALEKLPTFDRLRKGILTASHAGGPINEIDIQKLGFQDTKKLLERLIKVGDDEHEKLLWKLKKRIDRVGIDLPTIEVRFDHLKVEAEVHVGGRALPTFVNFISNFADKFLNTLHLVPNRKKKFTILNDVSGIVKPGRMALLLGPPSSGKTTLLLALAGKLDQELKQTGRVTYNGHGMNEFVPQRTAAYIGQNDVHIGEMTVRETFAYAARFQGVGSRYDMLTELARREKEANIKPDPDIDIFMKAMSTAGEKTNVMTDYILKILGLEVCADTMVGDDMLRGISGGQKKRVTTGEMLVGPSRALFMDEISTGLDSSTTYQIVNSLRNYVHIFNGTALISLLQPAPETFNLFDDIILIAEGEIIYEGPRDHVVEFFETMGFKCPPRKGVADFLQEVTSKKDQMQYWARRDEPYRFIRVREFAEAFQSFHVGRRIGDELALPFDKTKSHPAALTTKKYGVGIKELVKTSFSREYLLMKRNSFVYYFKFGQLLVMAFLTMTLFFRTEMQKKTEVDGSLYTGALFFILMMLMFNGMSELSMTIAKLPVFYKQRDLLFYPAWVYSLPPWLLKIPISFMEAALTTFITYYVIGFDPNVGRLFKQYILLVLMNQMASALFKMVAALGRNMIVANTFGAFAMLVFFALGGVVLSRDDIKKWWIWGYWISPIMYGQNAILANEFFGHSWSRAVENSSETLGVTFLKSRGFLPHAYWYWIGTGALLGFVVLFNFGFTLALTFLNSLGKPQAVIAEEPASDETELQSARSEGVVEAGANKKRGMVLPFEPHSITFDNVVYSVDMPQEMIEQGTQEDRLVLLKGVNGAFRPGVLTALMGVSGAGKTTLMDVLAGRKTGGYIDGNITISGYPKNQQTFARISGYCEQTDIHSPHVTVYESLVYSAWLRLPKEVDKNKRKIFIEEVMELVELTPLRQALVGLPGESGLSTEQRKRLTIAVELVANPSIIFMDEPTSGLDARAAAIVMRTVRNTVDTGRTVVCTIHQPSIDIFEAFDELFLLKRGGEEIYVGPLGHESTHLINYFESIQGINKITEGYNPATWMLEVSTTSQEAALGVDFAQVYKNSELYKRNKELIKELSQPAPGSKDLYFPTQYSQSFLTQCMASLWKQHWSYWRNPPYTAVRFLFTIGIALMFGTMFWDLGGKTKTRQDLSNAMGSMYTAVLFLGLQNAASVQPVVNVERTVFYREQAAGMYSAMPYAFAQVFIEIPYVLVQAIVYGLIVYAMIGFEWTAVKFFWYLFFMYGSFLTFTFYGMMAVAMTPNHHIASVVSSAFYGIWNLFSGFLIPRPSMPVWWEWYYWLCPVAWTLYGLIASQFGDITEPMADSNMSVKQFIREFYGYREGFLGVVAAMNVIFPLLFAVIFAIGIKSFNFQKR
	binds	Auxin-induced LRR Kinase1 (ALK1/QSK1/KIN7), At3g02880, endogenous (receptor, UniProt Q9M8T0 24-627) SDLESDRRALLAVRNSVRGRPLLWNMSASSPCNWHGVHCDAGRVTALRLPGSGLFGSLPIGGIGNLTQLKTLSLRFNSLSGPIPSDFSNLVLLRYLYLQGNAFSGEIPSLLFTLPSIIRINLGENKFSGRIPDNVNSATRLVTLYLERNQLSGPIPEITLPLQQFNVSSNQLNGSIPSSLSSWPRTAFEGNTLCGKPLDTCEAESPNGGDAGGPNTPPEKKDSDKLSAGAIVGIVIGCVVGLLLLLLILFCLCRKRKKEENVPSRNVEAPVAAATSSAAIPKETVVVVPPAKATGSESGAVNKDLTFFVKSFGEFDLDGLLKASAEVLGKGTVGSSYKASFEHGLVVAVKRLRDVVVPEKEFRERLHVLGSMSHANLVTLIAYYFSRDEKLLVFEYMSKGSLSAILHGNKGNGRTPLNWETRAGIALGAARAISYLHSRDGTTSHGNIKSSNILLSDSYEAKVSDYGLAPIISSTSAPNRIDGYRAPEITDARKISQKADVYSFGVLILELLTGKSPTHQQLNEEGVDLPRWVQSVTEQQTPSDVLDPELTRYQPEGNENIIRLLKIGMSCTAQFPDSRPSMAEVTRLIEEVSHSSGSPNPVSD
binds		ABCG34/PDR6, endogenous (protein, UniProt Q7PC87 1-1453) MLGRDEDLVRTMSGRGSLGSTSHRSLAGAASKSFRDVFAPPTDDVFGRSDRREEDDVELRWAALERLPTYDRLRKGMLPQTMVNGKIGLEDVDVTNLAPKEKKHLMEMILKFVEEDNEKFLRRLRERTDRVGIEVPKIEVRYENLSVEGDVRSASRALPTLFNVTLNTIESILGLFHLLPSKKRKIEILKDISGIIKPSRMTLLLGPPSSGKTTLLQALAGKLDDTLQMSGRITYCGHEFREFVPQKTCAYISQHDLHFGEMTVRESLDFSGRCLGVGTRYQLLTELSRREREAGIKPDPEIDAFMKSIAISGQETSLVTDYVLKLLGLDICADTLVGDVMRRGISGGQRKRLTTGEMLVGPATALFMDEISTGLDSSTTFQICKFMRQLVHIADVTMVISLLQPAPETFELFDDIILLSEGQIVYQGSRDNVLEFFEYMGFKCPERKGIADFLQEVTSKKDQEQYWNRREHPYSYVSVHDFSSGFNSFHAGQQLASEFRVPYDKAKTHPAALVTQKYGISNKDLFKACFDREWLLMKRNSFVYVFKTVQITIMSLIAMTVYFRTEMHVGTVQDGQKFYGALFFSLINLMFNGMAELAFTVMRLPVFFKQRDFLFYPPWAFALPGFLLKIPLSLIESVIWIALTYYTIGFAPSAARFFRQLLAYFCVNQMALSLFRFLGALGRTEVIANSGGTLALLVVFVLGGFIISKDDIPSWLTWCYYTSPMMYGQTALVINEFLDERWGSPNNDTRINAKTVGEVLLKSRGFFTEPYWFWICIGALLGFTVLFNFCYIIALMYLNPLGNSKATTVVEEGKDKHKGSHSGTGGSVVELTSTSSHGPKKGMVLPFQPLSLAFNNVNYYVDMPAEMKAQGVEGDRLQLLRDVGGAFRPGVLTALVGVSGAGKTTLMDVLAGRKTGGYVEGSINISGYPKNQATFARVSGYCEQNDIHSPHVTVYESLIYSAWLRLSADIDTKTREMFVEEVMELVELKPLRNSIVGLPGVDGLSTEQRKRLTIAVELVANPSIIFMDEPTSGLDARAAAIVMRTVRNTVDTGRTVVCTIHQPSIDIFESFDELLLMKRGGQVIYAGTLGHHSQKLVEYFEAIEGVPKIKDGYNPATWMLDVTTPSMESQMSVDFAQIFVNSSVNRRNQELIKELSTPPPGSNDLYFRTKYAQPFSTQTKACFWKMYWSNWRYPQYNAIRFLMTVVIGVLFGLLFWQTGTKIEKEQDLNNFFGAMYAAVLFLGATNAATVQPAVAIERTVFYREKAAGMYSAIPYAISQVAVEIMYNTIQTGVYTLILYSMIGYDWTVVKFFWFYYYMLTCFVYFTLYGMMLVALTPNYQIAGICLSFFLSFWNLFSGFLIPRPQIPIWWRWYYWASPVAWTLYGIITSQVGDRDSIVHITGVGDMSLKTLLKNGFGFDYDFLPVVAVVHIAWILIFLFAFAYGIKFLNFQRR

Reference: doi:10.1101/2022.05.11.491457
